# Experimental data from US11034672B1, “Tyrosine kinase inhibitor compositions, methods of making and methods of use” (Black Diamond Therapeutics, Inc., priority 2018, dated 2021).
# Protein sequences, listed by entry. Tags and fused reporters are not part of them. Chains listed by the source or under a name are the forms on record and can include a tag or linker. Residues count along the entry.
# UniProt P04626, 23-1255 S310F: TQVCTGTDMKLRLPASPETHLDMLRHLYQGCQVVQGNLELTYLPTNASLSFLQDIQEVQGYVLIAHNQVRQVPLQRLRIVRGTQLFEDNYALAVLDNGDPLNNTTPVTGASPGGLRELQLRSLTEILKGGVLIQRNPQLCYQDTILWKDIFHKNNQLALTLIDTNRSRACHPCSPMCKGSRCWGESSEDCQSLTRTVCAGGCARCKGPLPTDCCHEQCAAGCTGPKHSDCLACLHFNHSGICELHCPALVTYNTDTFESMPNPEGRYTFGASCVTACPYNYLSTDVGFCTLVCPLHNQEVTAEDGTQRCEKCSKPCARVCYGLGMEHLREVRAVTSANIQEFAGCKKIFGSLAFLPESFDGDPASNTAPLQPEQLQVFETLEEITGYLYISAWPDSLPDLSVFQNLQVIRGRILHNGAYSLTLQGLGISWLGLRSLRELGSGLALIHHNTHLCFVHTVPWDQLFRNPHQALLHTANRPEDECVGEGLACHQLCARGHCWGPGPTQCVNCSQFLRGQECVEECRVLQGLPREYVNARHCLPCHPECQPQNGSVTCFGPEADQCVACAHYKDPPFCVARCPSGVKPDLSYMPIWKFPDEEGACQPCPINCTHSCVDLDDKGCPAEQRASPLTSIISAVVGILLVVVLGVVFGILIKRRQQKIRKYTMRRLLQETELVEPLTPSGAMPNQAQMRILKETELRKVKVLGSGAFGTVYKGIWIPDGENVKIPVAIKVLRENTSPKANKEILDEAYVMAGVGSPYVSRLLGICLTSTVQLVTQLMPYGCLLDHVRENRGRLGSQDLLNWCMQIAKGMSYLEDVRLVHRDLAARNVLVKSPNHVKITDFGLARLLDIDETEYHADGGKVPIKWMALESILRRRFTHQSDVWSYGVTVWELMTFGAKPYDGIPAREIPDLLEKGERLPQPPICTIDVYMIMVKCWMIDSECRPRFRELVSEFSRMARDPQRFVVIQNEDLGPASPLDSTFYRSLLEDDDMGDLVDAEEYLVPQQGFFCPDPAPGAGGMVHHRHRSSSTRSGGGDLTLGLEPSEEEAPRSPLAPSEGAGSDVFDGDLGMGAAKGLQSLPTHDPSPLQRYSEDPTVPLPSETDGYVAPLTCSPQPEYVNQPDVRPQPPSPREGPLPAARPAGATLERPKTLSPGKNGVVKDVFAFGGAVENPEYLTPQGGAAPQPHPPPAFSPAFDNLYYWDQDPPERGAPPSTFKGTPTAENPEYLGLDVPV
# UniProt P00533, with tags, fused parts or gaps DELINS30-297G: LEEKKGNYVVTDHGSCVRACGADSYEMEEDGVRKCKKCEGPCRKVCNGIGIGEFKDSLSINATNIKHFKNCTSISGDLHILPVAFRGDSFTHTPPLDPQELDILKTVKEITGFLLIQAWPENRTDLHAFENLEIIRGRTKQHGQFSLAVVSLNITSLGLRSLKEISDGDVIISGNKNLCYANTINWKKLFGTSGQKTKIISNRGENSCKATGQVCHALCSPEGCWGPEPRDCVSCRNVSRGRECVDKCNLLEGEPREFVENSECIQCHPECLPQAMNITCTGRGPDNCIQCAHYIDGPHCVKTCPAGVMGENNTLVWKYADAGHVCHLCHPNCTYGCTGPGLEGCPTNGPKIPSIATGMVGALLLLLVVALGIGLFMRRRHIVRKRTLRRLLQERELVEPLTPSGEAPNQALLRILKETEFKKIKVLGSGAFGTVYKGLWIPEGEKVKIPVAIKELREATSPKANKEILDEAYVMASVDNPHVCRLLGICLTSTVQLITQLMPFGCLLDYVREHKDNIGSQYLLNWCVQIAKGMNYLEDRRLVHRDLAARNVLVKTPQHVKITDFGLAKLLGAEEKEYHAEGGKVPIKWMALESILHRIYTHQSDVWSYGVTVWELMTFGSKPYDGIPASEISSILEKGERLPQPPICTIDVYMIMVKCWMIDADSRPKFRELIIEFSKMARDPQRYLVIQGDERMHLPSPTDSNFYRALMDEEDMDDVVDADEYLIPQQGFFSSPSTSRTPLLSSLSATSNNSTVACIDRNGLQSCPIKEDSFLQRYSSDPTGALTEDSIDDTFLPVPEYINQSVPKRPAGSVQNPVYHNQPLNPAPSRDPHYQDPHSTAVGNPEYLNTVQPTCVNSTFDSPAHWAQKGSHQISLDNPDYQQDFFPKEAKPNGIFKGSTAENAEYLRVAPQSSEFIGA
# For some assays here: At least one structure is not confirmed: it was looked up by name or label, or the drawing left a doubt. Some entries share one result that the patent states for a list of compounds.
# Assays:
# [1] = tested on: HER2 extracellular variants; test: Covalent dimer formation of HER2 extracellular variants, Western blot; assay type: cell-based; conditions: Type I inhibitors
# HER2 YVMA = target: T1, HER2 YVMA (Homo sapiens, UniProt P04626, INS775YVMA); test: Activity for inhibiting HER2 (Table B), HER2 YVMA; assay type: cell-based; conditions: text lists of compounds
# T1 construct: expressed in transfected cells; host or cells: BaF3 (murine pro-B)
# Method: (§1) EC50 values were determined with the same application.
# EGFR V3 [2] = test: Activity for inhibiting EGFR (Table A), EGFR V3 (EGFR-Viii); assay type: cell-based, Homo sapiens; conditions: selectivity versus wild-type EGFR
# EGFR V3 [3] = target: T2, EGFR V3 (Homo sapiens, UniProt P00533, DELINS30-297G); test: as above; assay type: cell-based; conditions: text lists of compounds
# T2 construct: expressed in transfected cells; host or cells: BaF3 (murine pro-B), retroviral pMXs-IRES-Blasticidin
# HER2 S310F = target: T3, HER2 S310F (Homo sapiens, UniProt P04626, S310F); test: Activity for inhibiting HER2 (Table B), HER2 S310F; assay type: cell-based; conditions: text lists of compounds
# T3 construct: expressed in transfected cells; host or cells: BaF3 (murine pro-B)
# Method: as §1
# GBM = conditions: radiation and temozolomide alone; cited from earlier work
smiles,measurement,setting,value
"CN(C)C/C=C/C(=O)Nc1cc2c(Nc3ccc(F)c(Cl)c3)ncnc2cc1O[C@H]1CCOC1 [Afatinib, afatinib]",covalent dimers for HER2 extracellular variants,[1],induce the expression of covalent dimers
C=CC(=O)Nc1cc2c(Nc3cc(Cl)c(OCc4cccc(F)c4)cc3F)ncnc2cc1OCCN1CCOCC1 [compound 6],IC50,HER2 YVMA,≤ 0.1 µM
C=CC(=O)Nc1cc2c(Nc3ccc(OCc4ccccn4)c(Cl)c3)ncnc2cc1OCCN1CCOCC1 [compound 8],IC50,HER2 YVMA,≤ 0.1 µM
C=CC(=O)Nc1cc2c(Nc3ccc(OCc4ccccn4)cc3)ncnc2cc1OCCn1ccnc1 [compound 9],fold greater inhibition of EGFR-Viii relative to wild-type EGFR,EGFR V3 [2],at least 5 fold
same,IC50,EGFR V3 [3],≤ 0.1 µM
C=CC(=O)Nc1cc2c(Nc3ccc(OCc4ccccn4)c(Cl)c3)ncnc2cc1O[C@H]1CCN(C)C1 [compound 18],IC50,HER2 YVMA,≤ 0.1 µM
same,IC50,HER2 S310F,≤ 0.1 µM
C=CC(=O)Nc1cc2c(Nc3ccc(OCc4ccccn4)c(Cl)c3)ncnc2cc1OCCCN1CCCC1 [compound 22],IC50,HER2 YVMA,≤ 0.1 µM
C=CC(=O)Nc1cc2c(Nc3ccc(OCc4ccccn4)c(Cl)c3)ncnc2cc1OC1CN(C)C1 [compound 25],IC50,HER2 YVMA,≤ 0.1 µM
C=CC(=O)Nc1cc2c(Nc3ccc(OCc4ccccn4)c(Cl)c3)ncnc2cc1OCCN1CCCC1 [compound 28],IC50,HER2 YVMA,≤ 0.05 µM
C=CC(=O)Nc1cc2c(Nc3ccc(OCc4ccccn4)c(Cl)c3)ncnc2cc1OCCN1CCC(OC)C1 (centres unmarked) [compound 29],IC50,HER2 YVMA,≤ 0.1 µM
C=CC(=O)Nc1cc2c(Nc3ccc(OCc4ccccn4)c(Cl)c3)ncnc2cc1OCCN(C)CC [compound 32],IC50,HER2 YVMA,≤ 0.1 µM
C=CC(=O)Nc1cc2c(Nc3ccc(OCc4ccccn4)c(Cl)c3)ncnc2cc1OCCN1CC(F)C1 [compound 34],IC50,HER2 YVMA,≤ 0.1 µM
C=CC(=O)Nc1cc2c(Nc3ccc(OCc4ccccn4)c(Cl)c3)ncnc2cc1OCCN1CC2(COC2)C1 [compound 38],IC50,HER2 YVMA,≤ 0.1 µM
same,IC50,HER2 S310F,≤ 0.1 µM
C=CC(=O)Nc1cc2c(Nc3ccc(OCc4ccccn4)c(Cl)c3)ncnc2cc1OCCN1CC2CC1CO2 (centres unmarked) [compound 39],IC50,HER2 YVMA,≤ 0.1 µM
C=CC(=O)Nc1cc2c(Nc3cc(Cl)c(OCc4ccccn4)cc3F)ncnc2cc1OCCN1CCOCC1 [compound 57],IC50,HER2 YVMA,≤ 0.1 µM
C=CC(=O)Nc1cc2c(Nc3ccc(OCc4ccccn4)c(Cl)c3)ncnc2cc1C#CC(C)(C)N1CCN(C)CC1 [compound 65],IC50,HER2 YVMA,≤ 0.1 µM
C=CC(=O)Nc1cc2c(Nc3ccc(OCc4ccccn4)c(Cl)c3)ncnc2cc1C#CC(C)(C)N(C)C [compound 66],IC50,HER2 YVMA,≤ 0.1 µM
CC#CC(=O)Nc1cc2c(Nc3ccc(OCc4ccccn4)c(Cl)c3)ncnc2cc1OC1CCN(C)C1 (centres unmarked) [compound 67],IC50,HER2 YVMA,≤ 0.1 µM
C=CC(=O)Nc1cc2c(Nc3ccc(OCc4ccccn4)nc3)ncnc2cc1OCCN1CCOCC1 [compound 71],fold greater inhibition of EGFR-Viii relative to wild-type EGFR,EGFR V3 [2],at least 5 fold
same,IC50,EGFR V3 [3],≤ 0.1 µM
C=CC(=O)Nc1cc2c(Nc3ccc(OCc4ccccn4)cc3)ncnc2cc1OCC1COCCN1 (centres unmarked) [compound 79],fold greater inhibition of EGFR-Viii relative to wild-type EGFR,EGFR V3 [2],at least 5 fold
same,IC50,EGFR V3 [3],≤ 0.1 µM
"C=CC(=O)Nc1cc2c(Nc3ccc(OCc4ccccn4)c(Cl)c3)ncnc2cc1C#C[C@H]1CCNC1 [compound 86, N-(4-((3-chloro-4-(pyridin-2-ylmethoxy)phenyl)amino)-7-(pyrrolidin-3-ylethynyl)quinazolin-6-yl)acrylamide]",fold greater inhibition of EGFR-Viii relative to wild-type EGFR,EGFR V3 [2],at least 5 fold
same,IC50,HER2 S310F,≤ 0.1 µM
"C=CC(=O)Nc1cc2c(Nc3ccc(OCc4ccccn4)c(Cl)c3)ncnc2cc1C#C[C@@H]1CCCN1C [compound 87, N-(4-((3-chloro-4-(pyridin-2-ylmethoxy)phenyl)amino)-7-((1-methylpyrrolidin-2-yl)ethynyl)quinazolin-6-yl)acrylamide]",fold greater inhibition of EGFR-Viii relative to wild-type EGFR,EGFR V3 [2],at least 5 fold
same,IC50,HER2 S310F,≤ 0.1 µM
C=CC(=O)Nc1cc2c(Nc3ccc(OCc4ccccn4)c(Cl)c3)ncnc2cc1OCCN1CC2(CCN2C)C1 [compound 115],IC50,HER2 YVMA,≤ 0.1 µM
same,fold greater inhibition of EGFR-Viii relative to wild-type EGFR,EGFR V3 [2],at least 5 fold
same,IC50,HER2 S310F,≤ 0.1 µM
"C=CC(=O)Nc1cc2c(Nc3ccc(Oc4ccccc4)c(C)c3)ncnc2cc1C#C[C@@H]1[C@H]2CN(C)C[C@@H]12 [compound 117, N-(7-(((1R,5S,6s)-3-methyl-3-azabicyclo[3.1.0]hexan-6-yl)ethynyl)-4-((3-methyl-4-phenoxyphenyl)amino)quinazolin-6-yl)acrylamide]",fold greater inhibition of EGFR-Viii relative to wild-type EGFR,EGFR V3 [2],at least 5 fold
same,IC50,HER2 S310F,≤ 0.1 µM
"C=CC(=O)Nc1cc2c(Nc3ccc(OCc4ccccn4)c(Cl)c3)ncnc2cc1OCCC1COCCN1C (centres unmarked) [compound 120, N-(4-((3-chloro-4-(pyridin-2-ylmethoxy)phenyl)amino)-7-(2-(4-methylmorpholin-3-yl)ethoxy)quinazolin-6-yl)acrylamide]",IC50,HER2 YVMA,≤ 0.1 µM
C=CC(=O)Nc1cc2c(Nc3ccc(CC(=O)c4ccccn4)c(Cl)c3)ncnc2cc1O[C@@H]1CCN(C)C1 [compound 121],fold greater inhibition of EGFR-Viii relative to wild-type EGFR,EGFR V3 [2],at least 5 fold
same,IC50,HER2 S310F,≤ 0.1 µM
"C=CC(=O)Nc1cc2c(Nc3ccc(OCc4ccccn4)c(Cl)c3)ncnc2cc1OCC1CN(C)C1 [compound 123, N-(4-((3-chloro-4-(pyridin-2-ylmethoxy)phenyl)amino)-7-((1-methylazetidin-3-yl)methoxy)quinazolin-6-yl) Acrylamide]",fold greater inhibition of EGFR-Viii relative to wild-type EGFR,EGFR V3 [2],at least 5 fold
same,IC50,HER2 S310F,≤ 0.1 µM
"C=CC(=O)Nc1cc2c(Nc3ccc(OCc4ccccn4)c(Cl)c3)ncnc2cc1C#CC12CCN(CC1)CC2 [compound 126, N-(4-((3-chloro-4-(pyridin-2-ylmethoxy)phenyl)amino)-7-(quinuclidin-4-ylethynyl)quinazolin-6-yl)acrylamide]",IC50,HER2 YVMA,≤ 0.1 µM
same,IC50,HER2 S310F,≤ 0.1 µM
C=CC(=O)Nc1cc2c(Nc3ccc(OCc4cccc(C)n4)c(Cl)c3)ncnc2cc1OCCN1CC(OC)C1 [compound 135],fold greater inhibition of EGFR-Viii relative to wild-type EGFR,EGFR V3 [2],at least 5 fold
same,IC50,EGFR V3 [3],≤ 0.1 µM
C=CC(=O)Nc1cc2c(Nc3ccc(OCc4cccc(C)n4)c(Cl)c3)ncnc2cc1OCCCN1CC(OC)C1 [compound 138],IC50,HER2 YVMA,≤ 0.1 µM
same,IC50,EGFR V3 [3],≤ 0.1 µM
same,IC50,HER2 S310F,≤ 0.1 µM
"CC#CC(=O)Nc1cc2c(Nc3cc(Cl)c(OCc4cccc(F)c4)cc3F)ncnc2cc1OCCN1CCN(C)CC1 [compound 146, N-(4-((5-chloro-2-fluoro-4-((3-fluorobenzyl)oxy)phenyl)amino)-7-(2-(4-methylpiperazin-1-yl)ethoxy)quinazolin-6-yl)but-2-ynamide]",IC50,HER2 YVMA,≤ 0.1 µM
same,IC50,EGFR V3 [3],≤ 0.1 µM
same,IC50,HER2 S310F,≤ 0.1 µM
"CC#CC(=O)Nc1cc2c(Nc3cc(Cl)c(OCc4cccc(F)c4)cc3F)ncnc2cc1OCCN1CC2CCC(C1)O2 [compound 148, N-(7-(2-(8-oxa-3-azabicyclo[3.2.1]octan-3-yl)ethoxy)-4-((5-chloro-2-fluoro-4-((3-fluorobenzyl)oxy)phenyl)amino)quinazolin-6-yl)but-2-ynamide]",IC50,HER2 YVMA,≤ 0.1 µM
same,IC50,HER2 S310F,≤ 0.1 µM
"CC#CC(=O)Nc1cc2c(Nc3cc(Cl)c(OCc4cccc(F)c4)cc3F)ncnc2cc1OCCN1CC(OC)C1 [compound 152, N-(4-((5-chloro-2-fluoro-4-((3-fluorobenzyl)oxy)phenyl)amino)-7-(2-(3-methoxyazetidin-1-yl)ethoxy)quinazolin-6-yl)but-2-ynamide]",IC50,HER2 YVMA,≤ 0.1 µM
C=CC(=O)Nc1cc2c(Nc3ccc(OCc4cccc(F)n4)c(Cl)c3)ncnc2cc1OCCCN1CCOCC1 [compound 153],IC50,HER2 YVMA,≤ 0.1 µM
C=CC(=O)Nc1cc2c(Nc3ccc(OCc4cccc(F)n4)c(Cl)c3)ncnc2cc1OCCCN1C[C@@H]2C[C@H]1CO2 [compound 161],fold greater inhibition of EGFR-Viii relative to wild-type EGFR,EGFR V3 [2],at least 5 fold
same,IC50,HER2 S310F,≤ 0.1 µM
C=CC(=O)Nc1cc2c(Nc3ccc(OCc4cccc(F)n4)c(Cl)c3)ncnc2cc1OCCCN1C[C@H]2C[C@@H]1CO2 [compound 162],fold greater inhibition of EGFR-Viii relative to wild-type EGFR,EGFR V3 [2],at least 5 fold
same,IC50,HER2 S310F,≤ 0.1 µM
"CC#CC(=O)Nc1cc2c(Nc3ccc(OCc4cccnn4)c(Cl)c3)ncnc2cc1OCCCN1CCOCC1 [compound 165, N-(4-((3-chloro-4-(pyridazin-3-ylmethoxy)phenyl)amino)-7-(3-morpholinopropoxy)quinazolin-6-yl)but-2-ynamide]",IC50,HER2 YVMA,≤ 0.1 µM
C=CC(=O)Nc1cc2c(Nc3ccc(OCc4cccnn4)c(Cl)c3)ncnc2cc1OCCCN1CCOCC1 [compound 167],IC50,HER2 YVMA,≤ 0.1 µM
"CC#CC(=O)Nc1cc2c(Nc3ccc(OCc4ncccn4)c(Cl)c3)ncnc2cc1OCCCN1CCOCC1 [compound 168, N-(4-((3-chloro-4-(pyrimidin-2-ylmethoxy)phenyl)amino)-7-(3-morpholinopropoxy)quinazolin-6-yl)but-2-ynamide]",IC50,HER2 YVMA,≤ 0.1 µM
same,IC50,HER2 S310F,≤ 0.1 µM
C=CC(=O)Nc1cc2c(Nc3ccc(OCc4cccnn4)c(Cl)c3)ncnc2cc1OCCN1CCN(C)CC1 [compound 172],fold greater inhibition of EGFR-Viii relative to wild-type EGFR,EGFR V3 [2],at least 5 fold
same,IC50,HER2 S310F,≤ 0.1 µM
C=CC(=O)Nc1cc2c(Nc3ccc(OCc4cccnn4)c(Cl)c3)ncnc2cc1OCCCN1CC(OC)C1 [compound 177],IC50,HER2 YVMA,≤ 0.1 µM
"Cn1nnc2c(C(N)=O)ncn2c1=O [temozolomide, Temozolomide]",median OS (mOS),GBM,14.6 months
same,median PFS (mPFS),GBM,6.9 months
